Experiments:
Assay type in all cases: cell-based
[1] = system: Staphlococcus saprophyticus; assay: paper disc diffusion susceptibility (Kirby-Bauer) method; conditions: S. saprophyticus, ciprofloxacin 5 μg on disc
From the text: (§1) The first test method to be applied was the paper disc diffusion susceptibility method. In this method a filter paper disc impregnated with a chemical is placed on agar, and the chemical will diffuse from the disc into the agar. If an organism is placed on the agar, it will not grow in the area around the disc if it is susceptible to the chemical. This area of no growth around the disc is known as the zone of inhibition. This disc diffusion method for antibiotic susceptibility is known as the Kirby-Bauer method. In testing the effectiveness of various antibiotics, all factors, e.g., the agar utilized, the depth of the agar, the amount of organism used, and incubation conditions, are maintained constant for the various organisms and antibiotics being tested. […] The size of the zone of inhibition of the particular antimicrobial substance may also be influenced by the diffusion capability of that substance.
(§2) In performing the disc diffusion method tests, a bacterial suspension having an inoculum density of approximately 1×10^8 CFU/ml (colony forming units) was added to 10 ml trypticase soy agar at 46° C. It was mixed thoroughly by vortexing and then poured into a plastic Petri dish. After hardening of the agar, filter paper discs (φ7 mm.) made from Whatman filter paper No. 1 that had been impregnated by the manufacturer, Becton Dickinson, Inc., with the suitable antibiotic, were placed on the agar. In this series of tests the ability of each antibiotic per se to control the growth of the bacteria was measured.
(§3) Another series of agar containing Petri dishes was then prepared using the same bacteria and density thereof as had been prepared for the prior test series. However, here hop compounds were also present in the agar. The hop extract, either lupulone, humulone or xanthohumol, was dissolved in ethanol. While certain of the hop components are only slightly soluble in water, they are very soluble in ethanol. An ethanol control was prepared in the same way.
(§4) The size of the inhibition zones was measured to the nearest mm.
(§5) The concentration of β-acid and xanthohumol is set forth in μg/ml. The zone of inhibition was measured in centimeters. […]

[2] = system: B. subtilis; assay: paper disc diffusion susceptibility method; conditions: ciprofloxacin 5 μg on disc
From the text: as §1, §2, §3, §4, §5

[3] = system: B. megaterium; assay: paper disc diffusion susceptibility method; conditions: ciprofloxacin 5 μg on disc
From the text: as §1, §2, §3, §4, §5

[4] = system: S. salivarius; assay: paper disc diffusion susceptibility method; conditions: ciprofloxacin 5 μg on disc
From the text: as §1, §2, §3, §4, §5

Compound: O=C(O)c1cn(C2CC2)c2cc(N3CCNCC3)c(F)cc2c1=O [ciprofloxacin, 1-cyclopropyl-6-fluoro-1,4-dihyro-4-oxo-7-(1-piperaznyl)-3-quinolinecarboxylic acid]
- zone of inhibition, β-acid Avg ([1]; β-acid 0 μg/ml): 1.0 centimeters
- zone of inhibition, β-acid Exp #1 ([1]; β-acid 0 μg/ml): 1.0 centimeters
- zone of inhibition, β-acid Exp #2 ([1]; β-acid 0 μg/ml): 1.0 centimeters
- zone of inhibition, β-acid Avg ([1]; β-acid 3 μg/ml): 1.4 centimeters
- zone of inhibition, β-acid Exp #1 ([1]; β-acid 3 μg/ml): 1.5 centimeters
- zone of inhibition, β-acid Exp #2 ([1]; β-acid 3 μg/ml): 1.3 centimeters
- zone of inhibition, β-acid Avg ([2]; β-acid 0 μg/ml): 1.05 centimeters
- zone of inhibition, β-acid Exp #1 ([2]; β-acid 0 μg/ml): 1.1 centimeters
- zone of inhibition, β-acid Exp #2 ([2]; β-acid 0 μg/ml): 0.9 centimeters
- zone of inhibition, β-acid Avg ([2]; β-acid 3 μg/ml): 1.45 centimeters
- zone of inhibition, β-acid Exp #1 ([2]; β-acid 3 μg/ml): 1.5 centimeters
- zone of inhibition, β-acid Exp #2 ([2]; β-acid 3 μg/ml): 1.4 centimeters
- zone of inhibition, β-acid Avg ([3]; β-acid 0 μg/ml): 0.85 centimeters
- zone of inhibition, β-acid Exp #1 ([3]; β-acid 0 μg/ml): 1.0 centimeters
- zone of inhibition, β-acid Exp #2 ([3]; β-acid 0 μg/ml): 0.7 centimeters
- zone of inhibition, β-acid Avg ([3]; β-acid 3 μg/ml): 1.25 centimeters
- zone of inhibition, β-acid Exp #1 ([3]; β-acid 3 μg/ml): 1.5 centimeters
- zone of inhibition, β-acid Exp #2 ([3]; β-acid 3 μg/ml): 1.0 centimeters
- zone of inhibition, β-acid Avg ([4]; β-acid 0 μg/ml): 0.7 centimeters
- zone of inhibition, β-acid Exp #1 ([4]; β-acid 0 μg/ml): 0.6 centimeters
- zone of inhibition, β-acid Exp #2 ([4]; β-acid 0 μg/ml): 0.8 centimeters
- zone of inhibition, β-acid Avg ([4]; β-acid 30 μg/ml): 1.2 centimeters
- zone of inhibition, β-acid Exp #1 ([4]; β-acid 30 μg/ml): 1.3 centimeters
- zone of inhibition, β-acid Exp #2 ([4]; β-acid 30 μg/ml): 1.1 centimeters
